Results as given in article PMC8169803.
Results are given in words; binding and its absence hold for the method and conditions named. In cells and extracts the contact can be indirect. Some binding calls cover weakened binding; strength is not graded here. For some assays here: Tags and fused reporters may be left off the sequences shown.

Chains of the proteins cited; added tags and fusions are not shown.
UniProt Q99496: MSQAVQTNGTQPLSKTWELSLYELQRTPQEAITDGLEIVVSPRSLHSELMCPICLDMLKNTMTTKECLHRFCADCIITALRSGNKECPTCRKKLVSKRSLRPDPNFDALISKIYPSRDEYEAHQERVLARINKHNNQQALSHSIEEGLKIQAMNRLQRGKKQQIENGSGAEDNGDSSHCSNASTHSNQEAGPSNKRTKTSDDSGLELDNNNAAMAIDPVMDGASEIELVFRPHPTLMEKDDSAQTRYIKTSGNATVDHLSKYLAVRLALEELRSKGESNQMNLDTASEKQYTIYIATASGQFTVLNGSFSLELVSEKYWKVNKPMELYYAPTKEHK
UniProt Q9BSM1: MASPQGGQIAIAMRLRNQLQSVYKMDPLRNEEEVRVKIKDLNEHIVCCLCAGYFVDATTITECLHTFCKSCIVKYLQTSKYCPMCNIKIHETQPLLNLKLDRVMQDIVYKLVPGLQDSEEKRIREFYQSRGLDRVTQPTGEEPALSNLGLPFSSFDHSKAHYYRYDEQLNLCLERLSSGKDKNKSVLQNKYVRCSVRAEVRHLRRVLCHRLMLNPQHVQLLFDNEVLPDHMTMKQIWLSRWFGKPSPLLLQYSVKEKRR
UniProt Q06587: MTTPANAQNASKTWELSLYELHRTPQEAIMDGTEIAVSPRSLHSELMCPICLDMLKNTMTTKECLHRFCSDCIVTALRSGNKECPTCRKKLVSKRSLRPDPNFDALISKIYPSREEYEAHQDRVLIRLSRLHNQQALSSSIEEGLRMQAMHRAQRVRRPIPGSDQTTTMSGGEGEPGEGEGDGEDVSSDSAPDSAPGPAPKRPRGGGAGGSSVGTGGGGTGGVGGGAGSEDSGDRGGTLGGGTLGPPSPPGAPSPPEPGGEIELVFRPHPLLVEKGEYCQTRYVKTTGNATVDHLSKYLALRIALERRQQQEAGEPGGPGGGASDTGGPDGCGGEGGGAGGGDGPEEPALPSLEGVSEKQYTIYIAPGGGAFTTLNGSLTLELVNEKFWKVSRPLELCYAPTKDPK
UniProt Q93009: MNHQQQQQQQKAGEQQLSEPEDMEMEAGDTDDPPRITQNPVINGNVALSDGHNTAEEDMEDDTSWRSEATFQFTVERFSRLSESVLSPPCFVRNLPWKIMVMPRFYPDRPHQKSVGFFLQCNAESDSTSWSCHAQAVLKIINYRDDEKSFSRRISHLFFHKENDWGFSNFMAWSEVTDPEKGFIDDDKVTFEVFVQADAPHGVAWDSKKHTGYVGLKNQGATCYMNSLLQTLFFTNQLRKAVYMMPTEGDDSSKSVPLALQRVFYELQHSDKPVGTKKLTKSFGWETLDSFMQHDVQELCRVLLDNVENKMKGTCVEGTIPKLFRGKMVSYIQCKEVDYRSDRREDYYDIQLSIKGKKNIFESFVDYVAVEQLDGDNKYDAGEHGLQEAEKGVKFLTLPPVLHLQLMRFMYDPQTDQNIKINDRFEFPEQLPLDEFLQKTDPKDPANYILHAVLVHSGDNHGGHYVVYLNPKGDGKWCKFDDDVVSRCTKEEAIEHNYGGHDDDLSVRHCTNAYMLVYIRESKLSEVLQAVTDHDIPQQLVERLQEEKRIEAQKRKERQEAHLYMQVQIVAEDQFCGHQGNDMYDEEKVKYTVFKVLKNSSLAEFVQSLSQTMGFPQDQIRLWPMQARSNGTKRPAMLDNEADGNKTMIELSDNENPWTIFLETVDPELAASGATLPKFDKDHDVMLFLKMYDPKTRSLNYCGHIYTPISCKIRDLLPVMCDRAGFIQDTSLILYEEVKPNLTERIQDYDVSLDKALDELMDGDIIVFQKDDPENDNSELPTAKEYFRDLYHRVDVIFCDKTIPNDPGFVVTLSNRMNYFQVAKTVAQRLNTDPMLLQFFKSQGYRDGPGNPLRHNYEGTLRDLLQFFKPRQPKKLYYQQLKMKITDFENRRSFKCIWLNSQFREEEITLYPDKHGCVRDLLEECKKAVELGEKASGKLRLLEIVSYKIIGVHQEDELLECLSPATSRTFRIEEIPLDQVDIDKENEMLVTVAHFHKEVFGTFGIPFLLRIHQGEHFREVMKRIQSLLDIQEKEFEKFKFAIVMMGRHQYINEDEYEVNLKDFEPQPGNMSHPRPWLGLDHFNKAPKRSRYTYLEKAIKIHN

How the values were obtained:
Assay in all cases: co-IP; GFP-Trap magnetic agarose pull outs on nuclear extracts of K562 cells stably expressing the GFP fusion, 1 h at 4°C; input, non-bound and bound fractions on western blot; also from cells treated with P22077 (72 h, 30 μM) and from cells expressing SCR, TRIM27 or USP7 shRNAs
[1] = biological target: T1, KDM2B-GFP (wild-type KDM2B, long form) (UniProt Q8NHM5)
T1 sequence: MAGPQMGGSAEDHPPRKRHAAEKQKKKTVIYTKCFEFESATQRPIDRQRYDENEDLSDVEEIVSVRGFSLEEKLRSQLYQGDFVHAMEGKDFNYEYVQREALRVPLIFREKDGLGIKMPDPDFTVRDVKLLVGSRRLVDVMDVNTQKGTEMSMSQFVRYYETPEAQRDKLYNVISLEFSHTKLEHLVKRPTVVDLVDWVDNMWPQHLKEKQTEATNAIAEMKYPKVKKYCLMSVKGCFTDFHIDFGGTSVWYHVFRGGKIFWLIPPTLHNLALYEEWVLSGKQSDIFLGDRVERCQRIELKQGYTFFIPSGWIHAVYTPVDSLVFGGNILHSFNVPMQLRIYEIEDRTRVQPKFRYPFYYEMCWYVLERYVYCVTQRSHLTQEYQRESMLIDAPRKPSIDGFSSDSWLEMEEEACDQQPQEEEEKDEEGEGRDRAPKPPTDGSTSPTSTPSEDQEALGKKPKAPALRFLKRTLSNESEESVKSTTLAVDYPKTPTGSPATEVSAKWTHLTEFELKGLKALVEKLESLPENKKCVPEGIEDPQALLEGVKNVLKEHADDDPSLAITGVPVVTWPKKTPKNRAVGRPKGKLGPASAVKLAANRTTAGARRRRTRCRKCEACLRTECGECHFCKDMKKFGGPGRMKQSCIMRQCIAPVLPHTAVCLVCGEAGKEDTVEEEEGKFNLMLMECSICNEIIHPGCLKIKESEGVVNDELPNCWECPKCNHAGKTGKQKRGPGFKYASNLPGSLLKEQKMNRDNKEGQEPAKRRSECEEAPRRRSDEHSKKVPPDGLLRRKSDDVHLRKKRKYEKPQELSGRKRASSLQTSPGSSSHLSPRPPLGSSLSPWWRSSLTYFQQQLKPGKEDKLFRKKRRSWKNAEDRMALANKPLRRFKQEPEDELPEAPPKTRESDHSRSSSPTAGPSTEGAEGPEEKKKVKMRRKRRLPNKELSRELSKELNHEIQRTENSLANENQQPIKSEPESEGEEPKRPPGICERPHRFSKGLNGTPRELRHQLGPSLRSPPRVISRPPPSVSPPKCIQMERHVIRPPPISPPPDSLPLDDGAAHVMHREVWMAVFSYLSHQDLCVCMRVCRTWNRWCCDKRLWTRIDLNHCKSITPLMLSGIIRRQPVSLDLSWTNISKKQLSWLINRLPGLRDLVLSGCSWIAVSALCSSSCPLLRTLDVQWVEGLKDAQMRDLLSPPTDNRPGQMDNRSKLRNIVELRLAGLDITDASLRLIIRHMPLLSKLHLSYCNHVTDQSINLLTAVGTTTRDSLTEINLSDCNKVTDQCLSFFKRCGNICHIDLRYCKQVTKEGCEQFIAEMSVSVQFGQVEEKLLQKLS

[2] = biological target: GFP-RING1B (UniProt Q99496)
[3] = biological target: PCGF1-GFP (UniProt Q9BSM1)

Row | binding [1] | binding [2] | binding [3] | Substance
1 | binds | – | – | RING1A, endogenous (from UniProt Q06587 1-406)
2 | binds | – | – | RING1B, endogenous (from UniProt Q99496 1-336)
3 | binds | – | – | PCGF1, endogenous (from UniProt Q9BSM1 1-259)
4 | – | binds | binds | USP7 (ubiquitin-specific peptidase 7), endogenous (from UniProt Q93009 1-1102) (enzyme)
